Data from patent US6582968B2 (Conselho Nacional de Desenvolvimento Cientifico e …, priority 1999, dated 2003).

Experiment: general procedure: Boc solid-phase peptide synthesis; diisopropylcarbodiimide; TBTU for recoupling
Settings: whole synthesis

Acetyl-Toac-Ser-Tyr-Ser-Met-Glu-His-Phe-Arg-Trp-Gly-Lys-Pro-Val-CONH2
crude yield: 83%
